This is an account of results in publication doi:10.1101/2022.05.04.490607 (bioRxiv, 2022).

The chains behind the UniProt entries cited, without tags or fusion partners.
UniProt P62258: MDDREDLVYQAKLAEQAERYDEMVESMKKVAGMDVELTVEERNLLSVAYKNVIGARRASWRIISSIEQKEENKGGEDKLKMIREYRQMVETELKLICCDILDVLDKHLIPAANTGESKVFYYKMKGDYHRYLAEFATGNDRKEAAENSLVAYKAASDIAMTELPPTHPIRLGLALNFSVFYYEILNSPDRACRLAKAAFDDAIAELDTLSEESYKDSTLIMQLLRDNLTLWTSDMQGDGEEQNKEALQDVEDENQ
UniProt P15056: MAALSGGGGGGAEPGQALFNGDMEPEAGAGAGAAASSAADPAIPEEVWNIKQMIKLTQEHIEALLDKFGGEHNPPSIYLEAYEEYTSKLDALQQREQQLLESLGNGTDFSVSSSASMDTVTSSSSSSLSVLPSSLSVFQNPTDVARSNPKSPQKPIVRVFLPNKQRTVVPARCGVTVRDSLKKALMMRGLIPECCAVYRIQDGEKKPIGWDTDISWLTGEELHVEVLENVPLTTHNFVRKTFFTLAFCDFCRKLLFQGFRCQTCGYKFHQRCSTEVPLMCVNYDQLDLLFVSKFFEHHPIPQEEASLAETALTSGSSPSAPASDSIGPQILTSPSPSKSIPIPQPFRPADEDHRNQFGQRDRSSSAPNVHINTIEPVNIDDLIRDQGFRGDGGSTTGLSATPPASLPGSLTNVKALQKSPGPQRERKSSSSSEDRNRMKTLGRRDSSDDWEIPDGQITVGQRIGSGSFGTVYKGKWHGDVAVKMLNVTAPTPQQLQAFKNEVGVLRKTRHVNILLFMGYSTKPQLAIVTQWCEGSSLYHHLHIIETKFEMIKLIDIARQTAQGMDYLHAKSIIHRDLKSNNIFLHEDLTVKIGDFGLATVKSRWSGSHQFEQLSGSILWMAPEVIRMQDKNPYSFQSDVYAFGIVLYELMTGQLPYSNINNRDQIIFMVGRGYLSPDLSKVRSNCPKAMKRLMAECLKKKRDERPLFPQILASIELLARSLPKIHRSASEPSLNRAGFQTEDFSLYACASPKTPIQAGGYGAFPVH

Assay [1] has as its target RAF1 (full-length human RAF1 with C-terminal StrepTagII) (human) (UniProt P04049). Nature of the assay: pull-down.
Assay [2] addresses T1, CDC37 I23E (C-terminal StrepTagII) (human) (UniProt Q16543).
T1 sequence: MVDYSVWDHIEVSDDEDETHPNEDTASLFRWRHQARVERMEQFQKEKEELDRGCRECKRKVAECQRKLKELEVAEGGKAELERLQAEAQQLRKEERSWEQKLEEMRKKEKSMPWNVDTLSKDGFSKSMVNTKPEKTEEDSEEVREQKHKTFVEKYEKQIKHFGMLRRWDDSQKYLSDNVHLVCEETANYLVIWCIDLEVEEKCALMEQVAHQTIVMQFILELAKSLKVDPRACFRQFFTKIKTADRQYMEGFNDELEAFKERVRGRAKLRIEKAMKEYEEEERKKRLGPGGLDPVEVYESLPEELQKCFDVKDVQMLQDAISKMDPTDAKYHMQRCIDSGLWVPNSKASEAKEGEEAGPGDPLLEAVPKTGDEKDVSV
Nature of the assay: pull-down.

No constants are given. Whether binding was seen depends on the method and setting. In cells and extracts the contact can be indirect. Some binding calls cover weakened binding; strength is not graded here. For some assays here: Sequences can lack the tags named with a protein.

“14-3-3ε (endogenous) (from UniProt P62258 1-255)”: the binding entry in assay [1] is on record as “binds”.
Turning to “B-RAF (endogenous) (from UniProt P15056 1-766)”, the binding result in assay [2] is given as “no binding”.
